Data on 15 sequences can be found in article PMC12816604.

Construct, isoform or probe ends are uncertain for at least one entry. For part of these data: Negatives hold for the conditions tested. For part of these data: Weaker means in comparison with the reference protein, sequence or condition of that experiment. For part of these data: At least one verdict rests on a figure or table, not on a statement of the authors.

The test system of data set [1] is J2 IgG WT. Put plainly: BLI. Conditions: BLI: 25 mM Tris-HCl pH 7.5, 100-400 mM KCl (per row), 2 mM MgCl2, 25 C, IgG immobilized on Protein A, recombinant protein, protein details: His8 (HC C-term).
The subject of data set [2] is J2 IgG WT. Put plainly: FP competition. The settings on record: vs 3'-FAM VA-I RNA; recombinant protein; protein details: His8 (HC C-term).
The subject of data set [3] is J2 IgG HC N101A. Put plainly: BLI. Conditions: 100 mM KCl; BLI: 25 mM Tris-HCl pH 7.5, 100-400 mM KCl (per row), 2 mM MgCl2, 25 C, IgG immobilized on Protein A; recombinant protein; protein details: His8.
In data set [4] the test system is J2 IgG HC N101R. Put plainly: BLI. The settings on record: 100 mM KCl, below N101A; BLI: 25 mM Tris-HCl pH 7.5, 100-400 mM KCl (per row), 2 mM MgCl2, 25 C, IgG immobilized on Protein A; recombinant protein; protein details: His8.
Data set [5] deals with J2 IgG HC N55A. In words: BLI. The settings on record: 100 mM KCl, Kd N.D.; BLI: 25 mM Tris-HCl pH 7.5, 100-400 mM KCl (per row), 2 mM MgCl2, 25 C, IgG immobilized on Protein A; recombinant protein; protein details: His8.
Data set [6] has as its system J2 IgG HC P102A. In words: BLI. The settings on record: 100 mM KCl; BLI: 25 mM Tris-HCl pH 7.5, 100-400 mM KCl (per row), 2 mM MgCl2, 25 C, IgG immobilized on Protein A; recombinant protein; protein details: His8.
In data set [7] the test system is J2 IgG HC W104A. Put plainly: BLI. The settings on record: 100 mM KCl, Kd N.D.; BLI: 25 mM Tris-HCl pH 7.5, 100-400 mM KCl (per row), 2 mM MgCl2, 25 C, IgG immobilized on Protein A; recombinant protein; protein details: His8.
The subject of data set [8] is J2 IgG HC Y50A. In words: BLI. Conditions: 100 mM KCl, Kd N.D.; BLI: 25 mM Tris-HCl pH 7.5, 100-400 mM KCl (per row), 2 mM MgCl2, 25 C, IgG immobilized on Protein A; recombinant protein; protein details: His8.
Data set [9] has as its system J2 IgG HC Y52A. In words: BLI. Conditions: 100 mM KCl, Kd N.D.; BLI: 25 mM Tris-HCl pH 7.5, 100-400 mM KCl (per row), 2 mM MgCl2, 25 C, IgG immobilized on Protein A; recombinant protein; protein details: His8.
For data set [10], the system named is J2 IgG LC S33R. Put plainly: BLI. The settings on record: 100 mM KCl, nearly abolished, Kd N.D.; BLI: 25 mM Tris-HCl pH 7.5, 100-400 mM KCl (per row), 2 mM MgCl2, 25 C, IgG immobilized on Protein A; recombinant …; protein details: His8 (HC).
For data set [11], the system named is J2 IgG LC W56A. In words: BLI. The settings on record: 100 mM KCl, severe reduction, Kd N.D.; BLI: 25 mM Tris-HCl pH 7.5, 100-400 mM KCl (per row), 2 mM MgCl2, 25 C, IgG immobilized on Protein A; recombinant …; protein details: His8 (HC).
Data set [12] deals with J2 IgG LC Y101A. Put plainly: BLI. The settings on record: 100 mM KCl, strongly reduced; BLI: 25 mM Tris-HCl pH 7.5, 100-400 mM KCl (per row), 2 mM MgCl2, 25 C, IgG immobilized on Protein A; recombinant protein; protein details: His8 (HC).
Data set [13] relates to J2 Fab. In words: X-ray. The settings on record: 2.85 A, 2 Fabs on one dsRNA; recombinant protein; protein details: His6 (HC C-term).
Data set [14] concerns J2 IgG WT. In words: SV-AUC. Conditions: 1:1 complex; recombinant protein; protein details: His8 (HC C-term).

On to “GUUGUAAAGAAAUAUAACAGGCUUGUACCAUUGAUGGAAA / TTTCCATCAATGGTACAAGCCTGTTATATTTCTTTACAAC [40-bp RNA-DNA hybrid]”, for which the binding result in [1] (400 mM KCl, robustly discriminated against, DNA:RNA hybrid) is given as “no binding”.

Consider “AAAAAAAAAAAAAAAAAAAAAAAAAAAAAAAAAAAAAAAA (double strand) [poly(dA)-poly(dT) 40 bp]”, for which the binding result in [1] (400 mM KCl) is listed as “no binding”.

“AAAAAAAAAAAAAAAAAAAAAAAAAAAAAAAAAAAAAAAA / UUUUUUUUUUUUUUUUUUUUUUUUUUUUUUUUUUUUUUUU [poly(rA)-poly(rU) 40 bp]”: the binding result in [1] (400 mM KCl) was “binds more weakly”.

With “AAAAAAAAAAAAAAAAAAAAAAAAAAAAAAAAAAAAAAAA (double strand) [poly(rA)-poly(dT) 40 bp]”, the binding result in data set [1] (400 mM KCl, weaker than poly(rA)-poly(rU), strand 1 RNA, strand 2 DNA, DNA:RNA hybrid) is on record as “binds more weakly”.

In the case of GUUGUA / UACAAC [6-bp dsRNA], the binding result in [1] (100 mM KCl) and in [2] was “no binding” in each case.

With “AAAAAAAAAAAAAAAAAAAAAAAAAAAAAAAAAAAAAAAA / UUUUUUUUUUUUUUUUUUUUUUUUUUUUUUUUUUUUUUUU [poly(dA)-poly(rU) 40 bp]”, the binding result in [1] (400 mM KCl, strand 1 DNA, strand 2 RNA, DNA:RNA hybrid) is recorded as “no binding”.

As for “GUUGUAAAGAAAUAUAGGCU / AGCCUAUAUUUCUUUACAAC [20-bp dsRNA]”, the binding result in [3], in data set [4], in data set [5], in data set [6], in data set [7] and in data set [8] was “binds more weakly” throughout. In addition, the binding result in [9], in [10], in [11] and in data set [12] was “binds more weakly” throughout.

Regarding “GUUGUAAAGAAGGUCAAUAUUGUA / AACAAUAUUGACCUUCUUUACAAC [crystallization dsRNA (23 bp + terminal A-A mismatch)]”, the binding result in data set [13] is given as “binds”.

Turning to “GUUGUAAAGAAAUAUAACAGGCUUGUACCAUUGAUGGAAA [40-nt ssRNA]”, the binding result in data set [1] (400 mM KCl) is “no binding”.

GUUGUAAAGA / UCUUUACAAC [10-bp dsRNA]: the binding result in data set [1] (100 mM KCl, Kd N.D.) is listed as “binds more weakly”; in data set [2] it was “binds more weakly”.

Consider “GUUGUAAAGAAGGU / ACCUUCUUUACAAC [14-bp dsRNA]”, for which, in data set [2], the binding result is “binds more weakly”.

Regarding “GTTGTAAAGAAATATAACAGGCTTGTACCATTGATGGAAA [40-nt ssDNA]”, the binding result in data set [1] (400 mM KCl, single-stranded DNA) is listed as “no binding”.

For the sequence “GUUGUAAAUAAAUAUAAUAGUUCUAUACUA / UAGUAUAGAACUAUUAUAUUUAUUUACAAC [30-bp dsRNA 17% GC]”, the binding result in [1] (200 mM KCl, nanomolar Kd) was “binds”; in data set [14] it was “binds”.

Turning to “GUUGUCCAGAAAUAAGGCUGCGUACCAAAC / GUUUGGUACGCAGCCUUAUUUCUGGACAAC [30-bp dsRNA 47% GC]”, the binding result in data set [1] (200 mM KCl, nanomolar Kd) is “binds”.

On to “GTTGTAAAGAAATATAACAGGCTTGTACCATTGATGGAAA (double strand) [40-bp dsDNA]”, for which the binding result in data set [1] (400 mM KCl) is “no binding”.
